Data taken from US20080107600A1.
These are yes or no findings as the source states them, for the method shown. For some assays here: Binding seen in cells or lysates may run through a third protein. Some binding calls cover weakened binding; strength is not graded here. For some assays here: Tags and fused reporters may be left off the sequences shown. One block for each binder: values may come before it.

Experiments:
[1] = biological target: T1, FEZ1-HA (human FEZ1 with a C-terminal HA tag) (human) (UniProt Q99689); assay: co-immunoprecipitation from transfected HEK293T cells
T1 sequence: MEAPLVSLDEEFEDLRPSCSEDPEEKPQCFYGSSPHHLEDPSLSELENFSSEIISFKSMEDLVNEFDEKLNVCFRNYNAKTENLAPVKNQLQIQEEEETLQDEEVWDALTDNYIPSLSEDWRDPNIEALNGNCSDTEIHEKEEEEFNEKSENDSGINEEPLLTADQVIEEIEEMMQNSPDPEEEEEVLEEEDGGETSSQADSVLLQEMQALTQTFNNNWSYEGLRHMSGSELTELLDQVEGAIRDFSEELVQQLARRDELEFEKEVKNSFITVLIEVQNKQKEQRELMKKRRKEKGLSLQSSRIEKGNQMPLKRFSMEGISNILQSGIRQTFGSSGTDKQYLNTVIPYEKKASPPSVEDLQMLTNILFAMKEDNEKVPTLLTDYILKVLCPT

[2] = biological target: DISC1 C-terminal domain (amino acids 348-854) in pAS2-1, yeast two-hybrid bait (human); assay: yeast two-hybrid screen of a human adult brain cDNA library with DISC1 348-854 as bait
[3] = biological target: DISC1 C-terminal domain (amino acids 348-854) in pAS2-1, yeast two-hybrid bait (human); assay: yeast two-hybrid, alpha-galactosidase assay
[4] = biological target: T1, FEZ1-HA (human FEZ1 with a C-terminal HA tag) (human); assay: reciprocal co-immunoprecipitation from transfected HEK293T cells

B3: FEZ1 C-terminal fragment (amino acids 247-392) in pACT2 (protein, not shown: large carriers)
chain: SEELVQQLARRDELEFEKEVKNSFITVLIEVQNKQKEQRELMKKRRKEKGLSLQSSRIEKGNQMPLKRFSMEGISNILQSGIRQTFGSSGTDKQYLNTVIPYEKKASPPSVEDLQMLTNILFAMKEDNEKVPTLLTDYILKVLCPT
- binding [3]: binds

B4: DISC1-FLAG (full-length human DISC1 with a C-terminal FLAG tag) (protein, not shown: small tags and cut ends)
chain: MPGGGPQGAPAAAGGGGVSHRAGSRDCLPPAACFRRRRLARRPGYMRSSTGPGIGFLSPAVGTLFRFPGGVSGEESHHSESRARQCGLDSRGLLVRSPVSKSAAAPTVTSVRGTSAHFGIQLRGGTRLPDRLSWPCGPGSAGWQQEFAAMDSSETLDASWEAACSDGARRVRAAGSLPSAELSSNSCSPGCGPEVPPTPPGSHSAFTSSFSFIRLSLGSAGERGEAEGCPPSREAESHCQSPQEMGAKAASLDGPHEDPRCLSQPFSLLATRVSADLAQAARNSSRPERDMHSLPDMDPGSSSSLDPSLAGCGGDGSSGSGDAHSWDTLLRKWEPVLRDCLLRNRRQMEVISLRLKLQKLQEDAVENDDYDKAETLQQRLEDLEQEKISLHFQLPSRQPALSSFLGHLAAQVQAALRRGATQQASGDDTHTPLRMEPRLLEPTAQDSLHVSITRRDWLLQEKQQLQKEIEALQARMFVLEAKDQQLRREIEEQEQQLQWQGCDLTPLVGQLSLGQLQEVSKALQDTLASAGQIPFHAEPPETIRSLQERIKSLNLSLKEITTKVCMSEKFCSTLRKKVNDIETQLPALLEAKMHAISGNHFWTAKDLTEEIRSLTSEREGLEGLLSKLLVLSSRNVKKLGSVKEDYNRLRREVEHQETAYETSVKENTMKYMETLKNKLCSCKCPLLGKVWEADLEACRLLIQSLQLQEARGSLSVEDERQMDDLEGAAPPIPPRLHSEDKRKTPLKVLEEWKTHLIPSLHCAGGEQKEESYILSAELGEKCEDIGKKLLYLEDQLHTAIHSHDEDLIQSLRRELQMVKETLQAMILQLQPAKEAGEREAAASCMTAGVHEAQA
- binding [1]: binds
- binding [4]: binds

Now from value to binder:

- binding [1]: binds
B1: DISC1/BR-FLAG (FEZ1-binding region of DISC1, amino acids 446-633, FLAG-tagged) (protein, not shown: small tags and cut ends)
chain: DSLHVSITRRDWLLQEKQQLQKEIEALQARMFVLEAKDQQLRREIEEQEQQLQWQGCDLTPLVGQLSLGQLQEVSKALQDTLASAGQIPFHAEPPETIRSLQERIKSLNLSLKEITTKVCMSEKFCSTLRKKVNDIETQLPALLEAKMHAISGNHFWTAKDLTEEIRSLTSEREGLEGLLSKLLVLSS

- binding [2]: binds
B2: FEZ1 partial clone (amino acids 129-392) from the human adult brain cDNA library (protein, not shown: large carriers)
chain: LNGNCSDTEIHEKEEEEFNEKSENDSGINEEPLLTADQVIEEIEEMMQNSPDPEEEEEVLEEEDGGETSSQADSVLLQEMQALTQTFNNNWSYEGLRHMSGSELTELLDQVEGAIRDFSEELVQQLARRDELEFEKEVKNSFITVLIEVQNKQKEQRELMKKRRKEKGLSLQSSRIEKGNQMPLKRFSMEGISNILQSGIRQTFGSSGTDKQYLNTVIPYEKKASPPSVEDLQMLTNILFAMKEDNEKVPTLLTDYILKVLCPT
